# From the supplement of paper PMC3741180, “A Novel High Throughput Biochemical Assay to Evaluate the HuR Protein-RNA Complex Formation” (PLoS ONE, 2013)
# Sequences of proteins named here, by UniProt entry; tags and fusion partners are left off.
# UniProt Q15717, whole entry: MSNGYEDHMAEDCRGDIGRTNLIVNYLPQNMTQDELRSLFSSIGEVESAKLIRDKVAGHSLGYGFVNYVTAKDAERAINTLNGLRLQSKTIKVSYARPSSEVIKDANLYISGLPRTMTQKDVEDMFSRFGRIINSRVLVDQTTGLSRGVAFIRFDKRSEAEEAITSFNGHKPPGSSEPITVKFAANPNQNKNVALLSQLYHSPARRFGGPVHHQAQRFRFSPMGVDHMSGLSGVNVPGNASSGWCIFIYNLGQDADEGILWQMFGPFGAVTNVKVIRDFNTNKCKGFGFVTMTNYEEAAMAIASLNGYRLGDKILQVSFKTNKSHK
# Several values for one entry are separate records, joined by “and”; a condition that tells them apart may be missing. Equal values may be shown once. The list shows a part of the results. This data set is noisy: repeats of one test often differ as much as different tests do.
# Target: HuR (ELAVL1) - TNFalpha ARE RNA complex (UniProt Q15717)
# Test: AlphaScreen HuR-RNA complex signal Z-score relative to positive (Bi-TNF, DMSO) controls (Z-score (SD units of positive control)); higher = more complex signal
# Conditions: screen stage: primary screen; compound concentration: 25 nM
row,SMILES,AlphaScreen HuR-RNA complex signal Z-score
1,CC1=C2C(O)C(=O)OC3CC4C(C)(C)C(=O)C=C[C@]4(C)C(CC1)[C@]23C (some centres not stated),-0.436
2,CC(C)(O)CC[C@@H](O)[C@](C)(O)[C@H]1CC[C@@]2(O)C3=CC(=O)[C@@H]4C[C@@H](O)[C@@H](O)C[C@]4(C)[C@H]3CC[C@]12C,-0.241
3,CCCc1cc(OC)c2c(c1)OCO2,0.712
4,Nc1ccc(S(=O)(=O)Nc2ccc(Cl)nn2)cc1,0.729
5,COC1=C(O)C(=O)c2c(cc3oc(C(C)=O)c(O)c3c2O)C1=O,0.5
6,Cc1ccc(/C(=C\CN2CCCC2)c2ccccn2)cc1,-3.02
7,CC(C)(O/N=C(\C(=O)N[C@@H]1C(=O)N2C(C(=O)[O-])=C(C[n+]3ccccc3)CS[C@H]12)c1csc(N)n1)C(=O)O,2.07
8,COc1ccc(C2CC(=O)c3ccc(OC)cc3O2)cc1 (configuration not stated),0.732
9,OC[C@H]1O[C@@H](OCCc2ccc(O)cc2)[C@H](O)[C@@H](O)[C@@H]1O,-0.391
10,CNCCC=C1c2ccccc2CCc2ccccc21,0.49
11,CC(=O)O[C@H]1CC[C@]2(C)[C@H]3CC[C@@]4(C)[C@H](c5ccoc5)OC(=O)[C@H]5O[C@]54[C@]3(C)[C@H](OC(C)=O)C[C@H]2C1(C)C [3beta-ACETOXYDEOXODIHYDROGEDUNIN],2.19
12,Cc1ccc2c(c1)CC[C@H]1CC(=O)CC[C@]21C,1.75
13,CC(=O)Nc1ccc(S(=O)(=O)Nc2ccc([N+](=O)[O-])cc2)cc1,0.765
14,Cc1ccc(C(=O)Nc2ccc(S(=O)(=O)O)c3cc(S(=O)(=O)O)cc(S(=O)(=O)O)c23)cc1NC(=O)c1cccc(NC(=O)Nc2cccc(C(=O)Nc3cc(C(=O)Nc4ccc(S(=O)(=O)O)c5cc(S(=O)(=O)O)cc(S(=O)(=O)O)c45)ccc3C)c2)c1,2.09
15,CCc1cc(C(N)=S)ccn1,-1.55
16,CC(=O)Nc1c(I)c(NC(C)=O)c(I)c(C(=O)O)c1I,3.06
17,CN1CCN(C(c2ccccc2)c2ccc(Cl)cc2)CC1 (configuration not stated),-3.49
18,Cc1ccc(C(C)C)cc2c(C)ccc1-2,1.26
19,O=C(N/N=C/c1ccc([N+](=O)[O-])o1)c1ccc(O)cc1,-0.199
20,C[C@@H]1O[C@@H]1P(=O)(O)O,-1.18
21,CCn1cc(C(=O)O)c(=O)c2cc(F)c(N3CCN(C)CC3)cc21,-8.41

# Reformatted: two of the compounds above
row | SMILES | AlphaScreen HuR-RNA complex signal Z-score
5 | COC1=C(O)C(=O)c2c(cc3oc(C(C)=O)c(O)c3c2O)C1=O | 0.5
6 | Cc1ccc(/C(=C\CN2CCCC2)c2ccccn2)cc1 | -3.02

# Continuation:

row,SMILES,AlphaScreen HuR-RNA complex signal Z-score
1,CCCCC(=O)Oc1ccccc1C(=O)O,1.23
2,CCn1cc(C(=O)O)c(=O)c2cc(F)c(N3CCNC(C)C3)c(F)c21 (configuration not stated),0.689
3,CS(=O)(=O)Nc1ccc([N+](=O)[O-])cc1Oc1ccccc1,1.6
4,O=C(O)C1=CCNCC1,1.92
5,CNC(=C[N+](=O)[O-])NCCSCc1csc(CN(C)C)n1,3.94
6,CC1(C)[C@@H](O[C@H]2O[C@H](C(=O)O)[C@@H](O)[C@H](O)[C@H]2O[C@@H]2O[C@H](C(=O)O)[C@@H](O)[C@H](O)[C@H]2O)CC[C@]2(C)[C@H]3C(=O)C=C4[C@@H]5C[C@@](C)(C(=O)O)CC[C@]5(C)CC[C@@]4(C)[C@]3(C)CC[C@@H]12,2.75
7,CCOC(=O)CCC(=O)O[C@H]1[C@H](O[C@@H]2[C@@H](C)[C@H](O[C@H]3C[C@@](C)(OC)[C@@H](O)[C@H](C)O3)[C@@H](C)C(=O)O[C@H](CC)[C@@](C)(O)[C@H](O)[C@@H](C)C(=O)[C@H](C)C[C@@]2(C)O)O[C@H](C)C[C@@H]1N(C)C,-3.24
8,C[C@]12C=CC(=O)C=C1CC[C@@H]1[C@@H]2C(=O)C[C@@]2(C)[C@H]1CC[C@]2(O)C(=O)CO,3.23
9,CC(=O)O[C@@H]1C[C@@]2(C)C(CC[C@@H]2C(C)=O)C2CCC3=CC(=O)CC[C@]3(C)C21 (some centres not stated),0.35
10,CO[C@H]1C[C@@H]2CC[C@@H](C)[C@@](O)(O2)C(=O)C(=O)N2CCCC[C@H]2C(=O)O[C@H]([C@H](C)C[C@@H]2CC[C@@H](O)[C@H](OC)C2)CC(=O)[C@H](C)/C=C(\C)[C@@H](O)[C@@H](OC)C(=O)[C@H](C)C[C@H](C)/C=C/C=C/C=C/1C,0.504
11,COC(=O)C[C@H]1C(C)(C)[C@@H](OC(C)=O)[C@@H]2CC3=C4CC(=O)O[C@@H](c5ccoc5)[C@]4(C)CC[C@@H]3[C@@]1(C)C2=O,0.984
12,C#C[C@]1(O)CC[C@H]2[C@@H]3CCc4cc(OC)ccc4[C@H]3CC[C@@]21C,9.02
13,CC(C)NCC(O)c1ccc(NS(C)(=O)=O)cc1 (configuration not stated),2.5
14,CC(=O)N1CCN(c2ccc(OCC3COC(Cn4ccnc4)(c4ccc(Cl)cc4Cl)O3)cc2)CC1 (configuration not stated),-1.34
15,CCN(CC)CCCC(C)Nc1c2ccc(Cl)cc2nc2ccc(OC)cc12 (configuration not stated),-3.1
16,Cc1nc(C)c(Cl)c(O)c1Cl,4.48
17,CC1(C)C2CC(=O)O[C@@]3(C)C4=CC(=O)O[C@@H](c5ccoc5)[C@]4(C)CCC3[C@@]2(C)C=C[C@H]1O (some centres not stated),1.66
18,O=C(O)P(=O)(O)O,1.57
19,COc1cc2c(cc1OC)-c1cc3ccc(OC)c(OC)c3c[n+]1CC2,1.42 and 1.74
20,COC(=O)[C@H]1[C@H]2C[C@@H]3c4[nH]c5cc(OC)ccc5c4CCN3C[C@H]2C[C@@H](OC(=O)c2cc(OC)c(OC)c(OC)c2)[C@@H]1OC,-2.92
21,CNC(=C[N+](=O)[O-])NCCSCc1ccc(CN(C)C)o1,1.24
